Reference: publication PMC6947699

Target: T1, Ubiquitin-specific protease 15 (USP15) in SUM159 cells (human (in human SUM159 cells; endogenous or HA-tagged not told)) (UniProt Q9Y4E8)
T1 sequence: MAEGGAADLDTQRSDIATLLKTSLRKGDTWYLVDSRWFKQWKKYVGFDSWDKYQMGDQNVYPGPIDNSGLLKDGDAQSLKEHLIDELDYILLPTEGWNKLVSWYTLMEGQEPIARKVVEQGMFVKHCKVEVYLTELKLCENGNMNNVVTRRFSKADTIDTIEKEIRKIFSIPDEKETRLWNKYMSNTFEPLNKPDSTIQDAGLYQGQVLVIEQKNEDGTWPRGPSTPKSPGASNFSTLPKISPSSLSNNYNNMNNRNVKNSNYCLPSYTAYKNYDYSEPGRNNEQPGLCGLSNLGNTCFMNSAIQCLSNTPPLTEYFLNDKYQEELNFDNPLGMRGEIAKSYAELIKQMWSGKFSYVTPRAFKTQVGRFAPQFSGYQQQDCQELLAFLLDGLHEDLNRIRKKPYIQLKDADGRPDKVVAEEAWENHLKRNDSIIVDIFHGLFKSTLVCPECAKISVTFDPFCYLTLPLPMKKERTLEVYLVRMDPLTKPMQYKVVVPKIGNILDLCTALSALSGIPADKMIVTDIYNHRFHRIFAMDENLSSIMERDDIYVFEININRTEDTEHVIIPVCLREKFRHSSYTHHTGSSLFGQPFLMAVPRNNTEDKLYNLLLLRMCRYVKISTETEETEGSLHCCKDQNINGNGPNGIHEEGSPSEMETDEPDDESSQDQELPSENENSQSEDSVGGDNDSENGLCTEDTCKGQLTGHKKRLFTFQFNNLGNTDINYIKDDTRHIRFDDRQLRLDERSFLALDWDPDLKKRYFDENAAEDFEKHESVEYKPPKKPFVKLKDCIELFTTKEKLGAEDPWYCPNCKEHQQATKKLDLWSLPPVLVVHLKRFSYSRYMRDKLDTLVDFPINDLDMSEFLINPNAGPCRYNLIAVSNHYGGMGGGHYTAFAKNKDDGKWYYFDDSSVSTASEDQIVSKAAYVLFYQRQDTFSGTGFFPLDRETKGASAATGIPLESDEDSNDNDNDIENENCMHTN
Assay: affinity purification with mass spectrometry; Co-IP and mass spectroscopy from SUM159-IL1R2/-sIL1R2 and MB231-IL1R2/-sIL1R2 cells

binding: binds
B1: Full-length interleukin-1 receptor type 2 (IL1R2) with a C-terminal FLAG tag (receptor, UniProt P27930-1 14-398)
chain: FTLQPAAHTGAARSCRFRGRHYKREFRLEGEPVALRCPQVPYWLWASVSPRINLTWHKNDSARTVPGEEETRMWAQDGALWLLPALQEDSGTYVCTTRNASYCDKMSIELRVFENTDAFLPFISYPQILTLSTSGVLVCPDLSEFTRDKTDVKIQWYKDSLLLDKDNEKFLSVRGTTHLLVHDVALEDAGYYRCVLTFAHEGQQYNITRSIELRIKKKKEETIPVIISPLKTISASLGSRLTIPCKVFLGTGTPLTTMLWWTANDTHIESAYPGGRVTEGPRQEYSENNENYIEVPLIFDPVTREDLHMDFKCVVHNTLSFQTLRTTVKEASSTFSWGIVLAPLSLAFLVLGGIWMHRRCKHRTGKADGLTVLWPHHQDFQSYPK

These are yes or no findings as the source states them, for the method shown. Binding seen in cells or lysates may run through a third protein. These calls come from enrichment with a bait or labelling near it, and not all partners need be listed. Where a sequence is shown, tags or fusion partners need not be part of it.
